For 15 molecules, cell viability results are on record in the supplement of paper PMC9744312.

Broadly, the cell viability is a read-out of living cells in per cent, often relative to untreated cells.

Structures can show the parent of a compound that is named as a salt. This is one part of the list. The data scatter; read single values as rough.

For this test, the system named is Peyronie's disease tunica albuginea primary fibroblasts. The test can be described thus: cell viability (DRAQ5 nuclear stain) relative to TGF-beta1-only control; higher = more viable cells. To be noted: 10 µM; TGF-beta1 10 ng/mL; 72 h.
As for `CN(C)CCOC(c1ccc(Cl)cc1)c1ccccn1` (stereo not given) [CarbinoxaMine Maleate], the cell viability turned out to be 108%. For `NCCCC(N)(C(=O)O)C(F)F` (stereo not given) [Eflornithine hydrochloride hydrate], the cell viability came to 94.5%. As to `COC(=O)C1=C(C)NC(C)=C(C(=O)OCC(C)C)C1c1ccccc1[N+](=O)[O-]` (stereo not given) [Nisoldipine], the cell viability was found to be 100%. On to `Oc1cc(O)c(Cl)cn1` [Gimeracil], for which the cell viability worked out at 88.8%. Turning to `OC[C@H]1O[C@@H](c2ccc(Cl)c(Cc3ccc(O[C@H]4CCOC4)cc3)c2)[C@H](O)[C@@H](O)[C@@H]1O`, the cell viability is 58.5%. As to `CCCC(=O)[O-].[Na+]` [Sodium butyrate], the cell viability is 86.9%. On to `C/C=C(/C)C(=O)O[C@H]1[C@H](OC(C)=O)[C@@]2(CO)C(CC1(C)C)C1=CCC3[C@@]4(C)CCC(O[C@@H]5O[C@H](C(=O)O)[C@@H](O[C@@H]6O[C@H](CO)[C@@H](O)[C@H](O)[C@H]6O)[C@H](O)[C@H]5O[C@@H]5O[C@H](CO)[C@@H](O)[C@H](O)[C@H]5O)[C@](C)(CO)C4CC[C@@]3(C)[C@]1(C)C[C@H]2O.C/C=C(\C)C(=O)O[C@H]1[C@H](OC(C)=O)[C@@]2(CO)C(CC1(C)C)C1=CCC3[C@@]4(C)CCC(O[C@@H]5O[C@H](C(=O)O)[C@@H](O[C@@H]6O[C@H](CO)[C@@H](O)[C@H](O)[C@H]6O)[C@H](O)[C@H]5O[C@@H]5O[C@H](CO)[C@@H](O)[C@H](O)[C@H]5O)[C@](C)(CO)C4CC[C@@]3(C)[C@]1(C)C[C@H]2O` (stereo not given in full) [Escin], for which the cell viability was determined as 114%. Regarding `O=C(O)COCCN1CCN([C@H](c2ccccc2)c2ccc(Cl)cc2)CC1` [Levocetirizine Dihydrochloride], the cell viability was 88.2%.

Consider `Cc1cnc(C(=O)NCCc2ccc(S(=O)(=O)NC(=O)NC3CCCCC3)cc2)cn1` [Glipizide], for which the cell viability was found to be 97.8%. Next, `COc1ccc2c(O[C@@H]3C[C@H]4C(=O)N[C@]5(C(=O)NS(=O)(=O)C6CC6)C[C@H]5/C=C\CCCCN(C)C(=O)[C@@H]4C3)cc(-c3nc(C(C)C)cs3)nc2c1C` [Simeprevir]: 95.3%.

For the molecule `O=C1[C@H](CC[C@H](O)c2ccc(F)cc2)[C@@H](c2ccc(O)cc2)N1c1ccc(F)cc1` [Ezetimibe], the cell viability amounted to 89.8%. Regarding `Cc1ncc(COP(=O)(O)O)c(C=O)c1O` [Pyridoxal phosphate], the cell viability was determined as 44.7%. As for `CC(COc1ccccc1Cc1ccccc1)N1CCCCC1` (stereo not given) [Benproperine phosphate], the figure is 101%; as for `CC(O)(P(=O)(O)O)P(=O)(O)O` [Etidronate], 91.6%; as for `C[C@]1(COc2ccc(N3CCC(Oc4ccc(OC(F)(F)F)cc4)CC3)cc2)Cn2cc([N+](=O)[O-])nc2O1` [Delamanid], 93.2%.
